PubChem BioAssay AID1259308, NCATS – 2017
Here is one part, drawn at random, of about 59,000 reagents. Over the whole deposit, about 1,510 (2.6%) were called active. 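Calls use total luciferase alone and ignore viability, so some active siRNAs may act by altering cell number.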 The numbers tell different reagents against one gene apart. No sequences are given here.

- Aim: 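Knock-downs that increase output of a recombinant reporter protein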 (primary screen)
- System: human HEK293 embryonic kidney cells stably expressing firefly luciferase (HEK-CMV-Luc2-Hygro)
- Knock-down reagent: single siRNA against human genes, 0.8 pmol siRNA per well
- Time to read-out: 72 h
- Measurement: 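Luciferase light (ONE-Glo) measured on one replicate plate set and viability (CellTiter-Glo) on the other, scaled to a negative control siRNA, with robust z-scores and luciferase per cell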
- Reading the numbers: total luciferase, z-score and total luciferase, % of control: higher = more reporter protein produced; luciferase per cell, z-score: higher = more reporter output per viable cell; viable cells, % of control: higher = more viable cells
- Hit rule: 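An siRNA counts as active if its total luciferase robust z-score exceeds 3; genes with two or more such siRNAs out of three were retested with fresh siRNAs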
- Calls: active = raised luciferase; inactive = no rise

| target gene | reagent no. | total luciferase, z-score | total luciferase, % of control | luciferase per cell, z-score | viable cells, % of control | call |
| --- | --- | --- | --- | --- | --- | --- |
| PHRF1 | 1 | 0.58 | 93.4 | 0.823 | 84.1 | inactive |
| PHRF1 | 2 | 0.573 | 93.3 | 0.982 | 80.5 | inactive |
| PHRF1 | 3 | -0.212 | 77.7 | -0.469 | 98.2 | inactive |
| SAT2 | 1 | 1.3 | 108 | 1.28 | 86.1 | inactive |
| SAT2 | 2 | 0.759 | 97 | 0.683 | 90.5 | inactive |
| SAT2 | 3 | -0.771 | 66.5 | -1.02 | 97.2 | inactive |
| OGDHL | 1 | 0.26 | 87.1 | 0.0711 | 95.5 | inactive |
| OGDHL | 2 | 1.25 | 107 | 0.875 | 94.8 | inactive |
| OGDHL | 3 | -0.651 | 68.9 | -0.592 | 90 | inactive |
| MYL1 | 1 | 1.43 | 110 | 1.59 | 81.1 | inactive |
| MYL1 | 2 | 0.0719 | 83.3 | 0.37 | 84.5 | inactive |
| MYL1 | 3 | 0.0434 | 82.7 | 0.173 | 88.3 | inactive |
| PHKG2 | 1 | -0.325 | 75.4 | 0.0476 | 83.2 | inactive |
| PHKG2 | 2 | 0.702 | 95.9 | -0.105 | 110 | inactive |
| PHKG2 | 3 | 0.979 | 101 | 1.27 | 81.1 | inactive |
| C5AR1 | 1 | -0.161 | 78.7 | -0.147 | 91.4 | inactive |
| C5AR1 | 2 | 0.471 | 91.3 | 0.522 | 88.9 | inactive |
| C5AR1 | 3 | -1.79 | 46.3 | -0.951 | 66.5 | inactive |
| RIPK2 | 1 | -1.43 | 53.4 | -1.59 | 90.6 | inactive |
| RIPK2 | 2 | -0.0544 | 80.8 | 0.0473 | 89.2 | inactive |
| RIPK2 | 3 | -0.441 | 73.1 | -0.876 | 103 | inactive |
| TAS2R40 | 1 | -0.449 | 73 | 0.0776 | 79.9 | inactive |
| TAS2R40 | 2 | 1.52 | 112 | 1.47 | 85.2 | inactive |
| TAS2R40 | 3 | 2.49 | 131 | 1.66 | 94.9 | inactive |
| THOC7 | 1 | 1.86 | 119 | 1.11 | 99.1 | inactive |
| THOC7 | 2 | -0.422 | 73.5 | -0.6 | 96.2 | inactive |
| THOC7 | 3 | -0.471 | 72.5 | -1.11 | 108 | inactive |
| MTERF2 | 1 | 3.21 | 146 | 2.51 | 84.1 | active |
| MTERF2 | 2 | -0.708 | 67.8 | -0.564 | 87.9 | inactive |
| MTERF2 | 3 | -0.377 | 74.4 | -0.269 | 89.2 | inactive |
| LDHA | 1 | -0.461 | 72.7 | -0.617 | 95.6 | inactive |
| LDHA | 2 | -1.4 | 54 | 0.876 | 47.9 | inactive |
| LDHA | 3 | -0.278 | 76.4 | -0.138 | 88.5 | inactive |
| UTP23 | 1 | -2.1 | 40.1 | -2.6 | 89 | inactive |
| UTP23 | 2 | -1.99 | 42.2 | -2 | 80 | inactive |
| UTP23 | 3 | -1.42 | 53.5 | -1.05 | 78.9 | inactive |
| GARIN1B | 1 | 0.672 | 95.3 | 0.132 | 103 | inactive |
| GARIN1B | 2 | -0.0254 | 81.4 | -0.289 | 98.1 | inactive |
| GARIN1B | 3 | 0.386 | 89.6 | 0.117 | 97.1 | inactive |

Single entries from above:
THOC7 #2, viable cells, % of control → 96.2
Under “viable cells, % of control”, PHRF1 #3 reads 98.2
Value of OGDHL #1 under “total luciferase, z-score”: 0.26
Entry of MTERF2 #1 under “call”: active
C5AR1 #2, viable cells, % of control: 88.9
MYL1 #1, luciferase per cell, z-score → 1.59
